± gives the standard deviation. This is a selection; strong and weak results do not stand in their true shares. Many of these values have a large error. Some of the results follow.
Legend:
[1] = system: MILI (PIWIL2) piRISC loaded with L1MC piRNA (26 nt); test: pre-steady-state target cleavage rate (min^-1); higher = faster piRNA-guided slicing of the target; settings: guide: L1MC piRNA 5'p-UAACUAAAUACUAUGCAAGCUGUAGG; auxiliary factor: none (no GTSF1)
Procedure, shortened: (§1)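 The pre-steady-state cleavage rate was calculated from a burst-and-steady-state fit. Data came from Cleave-'n-Seq, in which […] transcribed, DNA-blocked target RNA library was mixed with 1 nM active affinity-purified piRISC carrying one synthetic guide, with or without 500 nM GTSF1 partner protein, in HEPES–potassium acetate buffer at 33 °C for 0–8 or 0–960 min. Uncleaved targets were sequenced and normalised to depth and to weakly complementary targets, three trials were pooled, and k3 was capped at 0.0001 min^-1.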

[2] = system: MIWI (PIWIL1) piRISC loaded with L1MC piRNA (30 nt); test: as above; settings: guide: L1MC piRNA 5'p-UAACUAAAUACUAUGCAAGCUGUAGGUCCU
Procedure, shortened: as §1

[3] = system: EfPiwi piRISC loaded with L1MC piRNA (26 nt); test: pre-steady-state target cleavage rate (min^-1); guide: L1MC piRNA 5'p-UAACUAAAUACUAUGCAAGCUGUAGG; MIWI and MILI are mouse PIWI proteins and EfPiwi is from a freshwater sponge; tags in brackets are library labels; higher = faster piRNA-guided slicing of the target
Procedure, shortened: as §1

[4] = auxiliary factor: none (no GTSF1)
[5] = auxiliary factor: 500 nM Ephydatia muelleri Gtsf1

Sequence | pre-steady-state target cleavage rate [1] | pre-steady-state target cleavage rate [2, 4] | pre-steady-state target cleavage rate [3, 5] | pre-steady-state target cleavage rate ([2]; auxiliary factor: 500 nM mouse GTSF1) | pre-steady-state target cleavage rate ([3]; auxiliary factor: none (no Gtsf1))
UCCUGGAUGUCGAAGCAUAGUAAUUUGUUA | 0.000586 ± 0.0081 | 0.000813 ± 0.0075 | 0.000156 ± 0.024 | – | –
UCCUCCUUGAGCUUGCAUAGUAUUUUCAAA | 0.000893 ± 0.0058 | 0.00166 ± 0.0026 | 0.00265 ± 0.0021 | – | –
UCCUGGAUCAGCUUCCAUUGUAUUUAGUUA | 0.0019 ± 0.0037 | 0.00114 ± 0.0074 | 0.00234 ± 0.0024 | – | –
UCCUGGAUGUCGAACCAAAGUAUUUAGAUA | < 0.0001 | 0.000332 ± 0.014 | 0.00023 ± 0.017 | – | –
UCCUGGAUGUGCUUGCAUAGUAAAAUCAAA [g9:g20:cont:t1A] | 0.000925 ± 0.0061 | 0.000457 ± 0.014 | 0.000303 ± 0.011 | – | –
UCCUGGAUGUCGAACGAUCAGUAUUUAGUUA | 0.000173 ± 0.023 | 0.000392 ± 0.015 | 0.00014 ± 0.021 | – | –
UCCUGGAUGUCGAAGCAAGUAUUUAGUUA | 0.000657 ± 0.0063 | 0.0012 ± 0.006 | 0.0001 ± 0.039 | – | –
UCCUGGAUGUCGAUGCAUAGUAUAAAGUUA | 0.00215 ± 0.0031 | 0.000713 ± 0.0089 | 0.000224 ± 0.013 | – | –
UCCUGCUACAGCUUGCAUUCAAUUUACAAA | 0.000162 ± 0.02 | 0.000255 ± 0.017 | 0.000318 ± 0.0095 | – | –
UCCUGCUACACCUUCCAUAGUAUUUAGUUA | 0.00113 ± 0.0063 | 0.00183 ± 0.005 | 0.00334 ± 0.0022 | – | –
UCCUGGAUGUCCUUGCAUAGUAUUAUCUAA | 0.000627 ± 0.0075 | 0.000603 ± 0.0085 | 0.00133 ± 0.0058 | – | –
UCCUGGAACAGCUUGCAAUCUAUUUACAAA | 0.000175 ± 0.013 | 0.000584 ± 0.015 | 0.00106 ± 0.0066 | – | –
UCCUGGAACAGCUUGCAAUGUAUUUUCAAA | 0.000553 ± 0.0084 | 0.000956 ± 0.0048 | 0.00126 ± 0.0074 | – | –
UCCUGGAUGUCGUUCCAUAGUAUUUAGUAA | 0.000193 ± 0.021 | 0.000301 ± 0.02 | 0.000316 ± 0.012 | – | –
UCCUCCUACUCGUUGCAUAGUAUUUACAAA | 0.000851 ± 0.0055 | 0.00126 ± 0.0031 | 0.00139 ± 0.0046 | – | –
UCCUGCUACAGCUUCCAUAGUAUUUAGAAA | 0.000578 ± 0.0079 | 0.000955 ± 0.0083 | 0.00349 ± 0.0019 | – | –
UCCUGGAUGUCGAUGGAAAGUAUUUAGUUA | 0.00039 ± 0.0098 | 0.000482 ± 0.015 | 0.000494 ± 0.011 | – | –
UCCUGGAUGUCGAACCAUAGUAUUAGUUA | < 0.0001 | 0.000433 ± 0.01 | 0.000118 ± 0.035 | – | –
UCCUCCUUGUGCUUGCAUAGUAUUUACAAA | 0.000667 ± 0.0072 | 0.0022 ± 0.0022 | 0.00376 ± 0.0032 | – | –
UCCUGGAUGUCGAAGCAUAGAAUUAAGUUA | 0.000207 ± 0.022 | 0.000191 ± 0.023 | 0.000373 ± 0.016 | – | –
UCCUCCUACAGCUUGCAUUGUAUUUACAAA | 0.00071 ± 0.0066 | 0.00148 ± 0.0034 | 0.00314 ± 0.003 | – | –
UCCUGGAACAGGUUGCAUAGUAUUUUCAAA | 0.00139 ± 0.0044 | 0.00151 ± 0.0051 | 0.00196 ± 0.0027 | – | –
UCCUGGAUGAGCUUGCAUAGAAUUUACAAA | 0.000705 ± 0.0096 | 0.00201 ± 0.0046 | 0.0015 ± 0.0046 | – | –
UCCUGGAUGUCGAUGCAUAGUAUGUAGUUA | 0.00149 ± 0.0052 | – | 0.000255 ± 0.023 | 0.000489 ± 0.017 | –
UCCUGCUACAGCUUCCAUAGUAUUUAGAUA | 0.000604 ± 0.0086 | 0.001 ± 0.0074 | – | – | 0.000235 ± 0.022

Reformatted as tab-separated lines: entries from further up
Sequence	pre-steady-state target cleavage rate [1]	pre-steady-state target cleavage rate [2, 4]	pre-steady-state target cleavage rate [3, 5]	pre-steady-state target cleavage rate ([2]; auxiliary factor: 500 nM mouse GTSF1)	pre-steady-state target cleavage rate ([3]; auxiliary factor: none (no Gtsf1))
UCCUGGAUGUCCUUGCAUAGUAUUAUCUAA	0.000627 ± 0.0075	0.000603 ± 0.0085	0.00133 ± 0.0058	–	–
UCCUGGAACAGCUUGCAAUCUAUUUACAAA	0.000175 ± 0.013	0.000584 ± 0.015	0.00106 ± 0.0066	–	–
